The whole screen tested about 330,000 compounds, of which about 4,200 (1.3%) were called active. Roughly 6% stayed inconclusive and do not appear here. Calls follow the shape of the dose curve; as a rule, active = well fitted activation curve with a large enough effect; inconclusive = small, poorly fitted or top-dose-only effect; inactive = no such curve, though single readings can be large or run the other way. This is a selection; strong and weak results do not stand in their true shares. The source gives no active or inactive call for entries shown without one.
Assay: qHTS screen for small molecules that induce genotoxicity in human embryonic kidney (HEK293T) cells expressing luciferase-tagged ELG1; also: nearly all actives have a fitted effect of over 60% in size; as to activity change, positive = activation: % of control where 0% means no effect
Conditions: HEK293T ELG1-luciferase reporter, luminescence, 16 h; activity change, positive = activation: at 46 µM (top of the series)
From the text: NIH Molecular Libraries Probe Production Network [MLPCN] NIH Chemical Genomics Center [NCGC] MLPCN Grant: 1 R03 MH092164-01 Assay Provider: Kyungjae Myung, NHGRI, NIH Keywords: MLPCN, qHTS, NCGC, genotoxicity, cancer Assay Overview: Cancer cells divide rapidly compared to normal cells in the body. During cell division, cancer cells need to duplicate their genome by DNA replication. The failure of genome duplication leads to cancer cells' death. Therefore, inhibitors of DNA replication could specifically kill cancer cells. Based on this concept, many chemotherapeutic agents were developed and have been used to treat cancer patients. However, there are a limited number of agents available in the clinical setting, and some of those that do exist have low efficacy and severe side effects. Therefore, if we can find the compounds that effectively block DNA replication either by directly damaging DNA or by inhibiting other cellular mechanisms, the options for cancer treatment will be broadened. With this in mind, we developed a quantitative high-throughput ELG1-luciferase reporter gene assay. Since the level of human ELG1 protein is enhanced in response to genetic stresses, increases in luciferase activity can be used to identify compounds that cause genetic stress.
Assay Protocol Summary: For genotoxicity screening, 2,000 cells in 5 uL/well were dispensed into white, solid-bottom 1536-well plates using a solenoid-based dispenser. Following transfer of 23 nL compound or DMSO vehicle by a pin tool, the plates were incubated 16 hr at 37 °C and 5% CO2. 5 ul ONE-Glo (Promega) was then added to each plate and following a 30 min incubation at room temperature, luciferase activity was quantified on a ViewLux CCD-based plate reader.
Potency is read from the fitted curve at half-maximal effect.

SMILES	activity change, positive = activation	Potency
COc1ccc(C(c2nnnn2CCc2ccccc2)N2CCN(C3CCCC3)CC2)cc1 (stereo unspecified)	7.76%	
c1ccc(-c2csc3ncnc(NCCN4CCOCC4)c23)cc1	inactive: -23%	
CCOc1ccccc1N1CCN(c2ncnc3scc(-c4ccc(OC)cc4)c23)CC1	inactive: -33.6%	
Cc1c(C(=O)N2CCOCC2)oc2ccc(S(=O)(=O)N3CCCC3)cc12	15.4%	
c1ccc(-c2noc(-c3ccc4c(c3)OCO4)n2)cc1		active: 0.411 µM
c1ccc(SCc2nc(-c3cccnc3)no2)cc1		active: 3.66 µM
O=c1c(/C=N/O)coc2ccc3ccccc3c12	45.6%	
O=C1COc2ccc(C(=O)COC(=O)c3ccc(Cl)cc3[N+](=O)[O-])cc2N1	26.5%	
COc1ccc(/C=C2/CCc3ccccc3C2=O)cc1CN1CCOCC1	inactive: 17.6%	
C=C(C)CN1CCN(c2ccc(N3C(=O)CCCC3=O)cc2[N+](=O)[O-])CC1	38.3%	
COc1ccc(C(=O)/C=C/Nc2ccccn2)cc1	-1.89%	
COc1ccccc1-n1c(SCC(=O)Nc2cccc(C)c2)nc2c(c1=O)SCC2	-0.214%	
O=C(Nc1ccccc1)c1ccc(-c2ccccc2)s1		active: 5.17 µM
c1ccc2nc(-c3ccc4c(c3)OCO4)ccc2c1		active: 2.59 µM
CC(C)C[C@H](NC(=O)Nc1ccc2c(c1)OCCO2)C(=O)O	inactive: -21.1%	
C=CCOc1ccc(CN(C)C(=O)CNC(=O)c2ccc(-c3ccccc3)cc2)cc1	inactive: -31.7%	
Cc1ccc(CNc2ncccc2-c2nc3cc(Cl)ccc3o2)cc1	22.9%	
CC1=C(C(=O)OCc2ccc3c(c2)OCO3)C(c2ccccc2)NC(=O)N1 (stereo unspecified)	inactive: -23.2%	
Cc1ccc(Cl)cc1NC(=O)C1CCCN(S(=O)(=O)c2c(C)noc2C)C1 (stereo unspecified)	4.99%	
CCCCC(=O)Nc1cccc(NC(=S)NC(=O)Cc2ccccc2)c1	6.83%	
O=C(NC(=S)Nc1nc2c(s1)CSc1ccccc1-2)c1ccccc1	0.661%	
COc1ccc([C@@H](C)NC(=O)CCc2nnc(-c3cc(C)on3)o2)cc1	10.4%	

SMILES	activity change, positive = activation	Potency
COc1cccc(N/C=C/C(=O)c2ccc(C)cc2)c1		active: 1.46 µM
Fc1ccc(SCCc2ccccn2)cc1	inactive: 14.4%	
COc1ccc(C(=O)N(Cc2ccccc2)c2ccc(C)cc2)cc1S(=O)(=O)N1CCOCC1	69.3%	
CC(C)(C)NC(=O)C(c1ccncc1)N(Cc1ccc(F)cc1)C(=O)c1ccc(-c2ccccc2)[nH]1 (stereo unspecified)	-10%	
C1=C(CCNC2=NCCCCC2)CCCC1	inactive: -24.7%	
COc1cc(NC(=O)C(C)Oc2ccccc2)c(OC)cc1NC(=O)c1ccccc1 (stereo unspecified)	inactive: -27.1%	
CCOc1cc(S(=O)(=O)NC2CCCCCC2)ccc1F	73.4%	
Cc1ccc(C(=O)Nc2ncccc2O)o1	86.4%	
Cc1ccc(S(=O)(=O)CNC(=O)c2ccccc2)cc1	50.8%	
O=C(Oc1ccc(-c2cn3c(n2)SCC3)cc1)c1ccccc1		active: 18.4 µM
O=C(O)c1cccc(COc2ccccc2Cl)c1	-50.7%	
NC(=O)NCc1ccc(Cl)cc1	4.1%	
Cc1cc2cc(CCNC(=O)c3c(-c4ccccc4Cl)noc3C)c(=O)[nH]c2cc1C	inactive: -22.8%	
COc1ccc(CNC(=O)CCCn2nc(C)c([N+](=O)[O-])c2C)cc1OC	12.9%	
Cc1noc(/C=C/c2ccccn2)c1[N+](=O)[O-]	inactive: -32.4%	
O=C(NCCc1c[nH]c2ccccc12)c1cnc2sccn2c1=O		active: 8.2 µM
CCn1c(SCC(=O)NCc2ccco2)nnc1-c1ccc(N)cc1	36.2%	
c1ccc2nc(-c3nc4ccccc4[nH]3)ccc2c1	33.6%	
COc1ccc(Cn2c(C3CC3)nc3ccc(NC(=O)C4CC4)cc3c2=O)cc1		active: 2.59 µM
C[N+](C)(CCCCCC[N+](C)(C)CCCN1C(=O)c2cccc3cccc(c23)C1=O)CCCN1C(=O)c2cccc3cccc(c23)C1=O	37.9%	
NNC(=O)c1ccc(COc2cccc3cccnc23)cc1	1.22%	
S=C(NCCc1c[nH]c2ccccc12)NC1CC1	4.86%	

SMILES	activity change, positive = activation	Potency
O=C(O)c1cc(O)c2c(c1)[C@@H]([C@H]1c3cc(C(=O)O)cc(O)c3C(=O)c3c(O[C@@H]4O[C@H](CO)[C@@H](O)[C@H](O)[C@H]4O)cccc31)c1cccc(OC3O[C@H](CO)[C@@H](O)[C@H](O)[C@H]3O)c1C2=O (stereo partly specified)	-7.59%	
O=C(CC1Nc2ccccc2NC1=O)c1ccccc1 (stereo unspecified)		active: 9.2 µM
O=C(Nc1nc2ccccc2[nH]1)c1cc2ccccc2o1		active: 2.31 µM
Cc1ccsc1/C=N/Nc1nc2ccccc2s1		active: 1.46 µM
Cc1nn(-c2c(Cl)cc(Cl)cc2Cl)c(=O)c2ccccc12	-2.16%	
COc1ccc(Cc2nnc(-c3ccccc3)o2)cc1	67.7%	
CC1=C/C(=C(/c2cc(C)c(O)c(Br)c2)c2ccccc2S(=O)(=O)O)C=C(Br)C1=O	inactive: -11.5%	
O=[N+]([O-])c1cc([N+](=O)[O-])c(Oc2cccnc2Br)cc1NN1CCCCC1	19.3%	
Cc1ccccc1N1C(=O)CC(N(O)c2ccccc2)C1=O (stereo unspecified)	65.7%	
C(#Cc1ccccc1)CN1CCOCC1	-16.3%	
Cc1ncc(CO)c2c1Oc1nc(-c3ccccc3)nc(SCC(=O)N(C)c3ccccc3)c1C2	6.31%	
N#CC1=C(N)SC(N)=C(C#N)C1Cc1ccccc1	-4.35%	
CCC(=O)N1CCc2cc(Br)cc(S(=O)(=O)N3CCC(C(=O)NCCCOC(C)C)CC3)c21	inactive: -32.8%	
O=C1C[C@H]2[C@H](CO)[C@@H](OC(=O)c3ccc(-c4ccccc4)cc3)C[C@H]2O1	inactive: 16.2%	
N#C/C(Cn1c[n+](NC(=O)Nc2ccccc2)cn1)=N/O	2.97%	
O=[N+]([O-])c1ccccc1NCc1ccc(Cl)cc1	16.8%	
CCc1ccc(NC(=O)N(CCN2CCOCC2)Cc2ccc3c(c2)CCCN3CC)cc1	-15.7%	
Cc1ccc(-c2cc3nc(C)cc(NCc4ccco4)n3n2)cc1		active: 4.11 µM
Oc1ccc2ccc3[nH]cnc3c2c1	-7.39%	
COCCNC(=O)c1ccc(S(=O)(=O)N2CCCc3ccccc32)cc1	7.56%	
CCOc1nc(NCCO)nc(Nc2cc(Cl)ccc2OC)n1	32.7%	
O=C(N/N=C/c1cccs1)c1ccc2c(c1)OCO2		active: 9.2 µM

For convenience, some entries already given.
SMILES	activity change, positive = activation	Potency
C(#Cc1ccccc1)CN1CCOCC1	-16.3%	
Cc1ncc(CO)c2c1Oc1nc(-c3ccccc3)nc(SCC(=O)N(C)c3ccccc3)c1C2	6.31%	
N#CC1=C(N)SC(N)=C(C#N)C1Cc1ccccc1	-4.35%	
CCC(=O)N1CCc2cc(Br)cc(S(=O)(=O)N3CCC(C(=O)NCCCOC(C)C)CC3)c21	inactive: -32.8%	
O=C1C[C@H]2[C@H](CO)[C@@H](OC(=O)c3ccc(-c4ccccc4)cc3)C[C@H]2O1	inactive: 16.2%	

(further entries)

SMILES	activity change, positive = activation	Potency
O=C(COC(=O)CCc1nc2ccccc2c(=O)[nH]1)NC1CCS(=O)(=O)C1 (stereo unspecified)	22.3%	
COc1ccc(NS(=O)(=O)c2ccc(NC(C)=O)cc2)cc1OC	29.1%	
O=C(Nc1cccnc1)c1cc2cc(Br)ccc2o1		active: 5.17 µM
O=C(C1CCC(Cn2c(=S)[nH]c3ccccc3c2=O)CC1)N1CCN(c2ccccn2)CC1 (stereo unspecified)	inactive: -20.1%	
COc1cc2c(cc1OC)C(C)N(C(=O)c1cc3c(C)cc(C)cc3[nH]1)CC2 (stereo unspecified)	inactive: -22.4%	
Cc1ccc(NC(=O)COC(=O)c2ccc([N+](=O)[O-])o2)cc1S(=O)(=O)N1CCCCCC1	3.15%	
COc1ccc2c(c1)c(C(C)=O)c(C)n2-c1ccc(C(C)=O)cc1	inactive: -21.1%	
CCOc1ccc(CN(C)c2nc(-c3cccnc3)nc3ccccc23)cc1OC	inactive: -35.2%	
O=C(c1ccc2oc(CCCc3ccccc3)nc2c1)N1CCCC1		active: 9.2 µM
CCOc1ccc(-n2ccnc(SCC(=O)Nc3cccc(OC)c3)c2=O)cc1	38.4%	
O=C(CCS(=O)(=O)c1ccc(Cl)cc1)Nc1nc(-c2cccnc2)cs1	59.4%	
CCCCC(=O)Nc1ccc2oc(-c3cccnc3)nc2c1	29.3%	
O=C(Nc1c2c(nn1-c1ccccc1)CS(=O)C2)c1ccc(S(=O)(=O)N2CCOCC2)cc1 (stereo unspecified)	15.9%	
N#CC1=C(N)N2C(=C(C#N)C13CCCCC3)SC1CCCCC12O (stereo unspecified)	-21.3%	
O=C1C2C3C=CC(C3)C2C(=O)N1c1ccc(-c2nc3ccccc3o2)cc1 (stereo unspecified)		active: 1.84 µM
COc1ccc(C(=O)n2nnc3ccccc32)cc1Br	2.62%	
COC(=O)c1[nH]c2ccccc2c1NC(=O)CN1CCN(c2cccc(OC)c2)C(C)C1 (stereo unspecified)	inactive: -28%	
CCCCCCOC(=O)c1ccc(OC(=O)c2cccnc2)cc1		active: 18.4 µM
Cc1c(Cl)ccc2c1NC(=O)[C@]21N[C@@H](Cc2ccccc2)[C@H]2C(=O)N(c3ccc(F)cc3)C(=O)[C@H]21	-16.5%	
CCOC(=O)c1c(NC(=O)C2COc3ccccc3O2)sc(C(C)=O)c1C (stereo unspecified)	1.16%	
Cc1ccc(CC(=O)Nc2cccc(C)n2)cc1		active: 20.6 µM
CCc1cc(C(=O)N2CCN(C(=O)c3ccco3)CC2)sc1C	49.9%	

SMILES	activity change, positive = activation	Potency
Cc1ccc(-c2nc(-c3ccncc3)no2)cc1		active: 3.66 µM
CCC(C)(C(=O)NC1CCCCC1)N(Cc1cccs1)C(=O)c1ccccn1 (stereo unspecified)	-9.07%	
CCCOC(=S)NC(=O)c1sc2ccccc2c1Cl	-2.88%	
O=C(COc1ccc(Cl)cc1Cl)NC1CCSC1=O (stereo unspecified)		active: 16.4 µM
CCOC(=O)c1ccc(NC(=O)N2CCCCCC2)cc1		active: 5.8 µM
C/C(=N\NC(=O)c1ccc(F)cc1)c1ccccn1		active: 5.17 µM
COC(=O)c1c(C)n(-c2ccc(OC)cc2)c2ccc(O)cc12	inactive: -25.3%	
O=C(Nc1cccc(-c2ccc(N3CCCCC3)nn2)c1)c1ccc(Br)o1		active: 2.31 µM
COc1ccc(-c2nsc3c(N4CCCC4)ncnc23)cc1	42.2%	
O=C(N/N=C/c1ccccn1)c1ccc(S(=O)(=O)N2CCCCCC2)cc1	4.61%	
CCC(C)(C(=O)NC1CCCCC1)N(CC1CCCO1)C(=O)Cc1cccs1 (stereo unspecified)	-2.19%	
Cc1cc(=O)oc(C)c1C(=O)NCc1c(F)cc(F)cc1F	23.6%	
COc1ccccc1C(c1c(N)n(C)c(=O)n(C)c1=O)C(C)[N+](=O)[O-] (stereo unspecified)	14.6%	
O=C(NCCO)c1cccc(Cl)c1	14.1%	
O=C(N/N=C/c1coc2ccc(Cl)cc2c1=O)c1ccc(O)cc1	inactive: -20.4%	
O=C(Nc1nccs1)c1cc2c(s1)CCCCC2	-15.6%	
COc1cccc(/C=C/C(=O)Nc2ccccc2N2CCOCC2)c1	-10.3%	
CCOCCCNC(=O)c1ccc2c(c1)ncn2-c1ccc(CC)cc1	3.69%	

— PubChem BioAssay AID504466 (National Center for Advancing Translational Sciences (NCATS), 2011)
